The target in assay [1] is T1, HA-BioID2-TPD54 R159E (human) (UniProt O43399).
T1 sequence: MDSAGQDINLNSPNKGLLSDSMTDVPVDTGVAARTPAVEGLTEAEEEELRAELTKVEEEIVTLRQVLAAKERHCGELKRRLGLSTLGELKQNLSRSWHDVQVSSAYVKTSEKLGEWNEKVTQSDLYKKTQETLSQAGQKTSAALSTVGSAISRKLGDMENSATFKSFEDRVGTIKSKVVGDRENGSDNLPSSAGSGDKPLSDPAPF
The assay is described as follows: proximity labelling; BioID2 fused to TPD54 WT or R159E in RPE1 cells, 50 µM biotin for 16 h; RIPA lysate, streptavidin beads, on-bead digestion, mass spectrometry.

By UniProt entry, the sequences of proteins in these tests, tags left out. Where a name states a change or a piece, a line headed by the entry shows the natural chain unless it says otherwise.
UniProt P05556: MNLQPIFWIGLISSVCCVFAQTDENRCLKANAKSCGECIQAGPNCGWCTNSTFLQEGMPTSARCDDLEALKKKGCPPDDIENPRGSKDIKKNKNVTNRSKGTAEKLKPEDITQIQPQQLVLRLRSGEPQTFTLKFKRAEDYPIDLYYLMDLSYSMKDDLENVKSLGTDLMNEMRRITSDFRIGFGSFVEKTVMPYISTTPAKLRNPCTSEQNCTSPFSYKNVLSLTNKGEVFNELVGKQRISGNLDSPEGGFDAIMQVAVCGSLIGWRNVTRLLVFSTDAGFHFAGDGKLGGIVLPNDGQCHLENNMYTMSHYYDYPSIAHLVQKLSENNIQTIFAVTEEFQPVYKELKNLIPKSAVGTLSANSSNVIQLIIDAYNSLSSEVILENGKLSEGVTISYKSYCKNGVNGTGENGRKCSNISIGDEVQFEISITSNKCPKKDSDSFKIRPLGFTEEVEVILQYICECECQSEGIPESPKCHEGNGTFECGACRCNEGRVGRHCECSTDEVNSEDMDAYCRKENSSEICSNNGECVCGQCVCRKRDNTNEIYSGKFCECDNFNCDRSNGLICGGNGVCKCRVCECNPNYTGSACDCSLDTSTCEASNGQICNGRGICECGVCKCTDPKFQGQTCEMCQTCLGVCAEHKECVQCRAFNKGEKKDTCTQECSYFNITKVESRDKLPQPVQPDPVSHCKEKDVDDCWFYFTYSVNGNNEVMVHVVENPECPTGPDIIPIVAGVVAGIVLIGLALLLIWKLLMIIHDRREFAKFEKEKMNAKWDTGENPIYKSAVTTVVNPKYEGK

The target of the next assay is GFP-TPD54 (human) (UniProt O43399). The assay is described as follows: affinity purification with mass spectrometry; RPE-1 cells transiently expressing GFP or GFP-TPD54, lysed under nonstringent conditions (10 mM Tris-HCl pH 7.5, 150 mM NaCl, 0.5 mM EDTA, 0.5% NP-40); GFP-Trap beads 1 h; washes with 500 mM NaCl; mass spectrometry.
Assay [2] deals with HA-BioID2-TPD54 WT (human) (UniProt O43399). Put plainly: proximity labelling; BioID2 fused to TPD54 WT or R159E in RPE1 cells, 50 µM biotin for 16 h; RIPA lysate, streptavidin beads, on-bead digestion, mass spectrometry.

Results are given in words; binding and its absence hold for the method and conditions named. Binding seen in cells or lysates may run through a third protein. Here binding means that the protein was enriched with, or labelled near, the bait; the list need not be complete. For some assays here: A no says only that the protein was not detected with the bait. For some assays here: Sequences can lack the tags named with a protein.

Turning to “integrin α5 (human (endogenous in RPE-1)) (receptor)”, in assay [1], the binding result was “no binding”.
For “integrin β1 (from UniProt P05556 21-798) (receptor)”, the binding entry (in the assay with GFP-TPD54 (human); in assay [2]) was “binds” throughout.

B1: TPD53 (protein, UniProt Q16890 1-204)
chain: MEAQAQGLLETEPLQGTDEDAVASADFSSMLSEEEKEELKAELVQLEDEITTLRQVLSAKERHLVEIKQKLGMNLMNELKQNFSKSWHDMQTTTAYKKTHETLSHAGQKATAAFSNVGTAISKKFGDMSYSIRHSISMPAMRNSPTFKSFEERVETTVTSLKTKVGGTNPNGGSFEEVLSSTAHASAQSLAGGSRRTKEEELQC
As for B1, in the assay with GFP-TPD54 (human), the binding result was “binds”.

B2: TPD52 (protein, UniProt P55327 1-224)
chain: MDCREMDLYEDYQSPFDFDAGVNKSYLYLSPSGNSSPPGSPTLQKFGLLRTDPVPEEGEDVAATISATETLSEEEQEELRRELAKVEEEIQTLSQVLAAKEKHLAEIKRKLGINSLQELKQNIAKGWQDVTATSAYKKTSETLSQAGQKASAAFSSVGSVITKKLEDVKNSPTFKSFEEKVENLKSKVGGTKPAGGDFGEVLNSAANASATTTEPLPEKTQESL
For B2, the binding entry with GFP-TPD54 (human) is on record as “binds”.

Source of the values: paper PMC8298100.
